Laboratory results: article PMC7048182
Results are given in words; binding and its absence hold for the method and conditions named. Binding calls can cover weak binding; strength is not graded here.

Amino acid sequences for entries named in this document (tags omitted). A change or cut given only in a name is not applied to a line headed by its entry.
UniProt D2DW56: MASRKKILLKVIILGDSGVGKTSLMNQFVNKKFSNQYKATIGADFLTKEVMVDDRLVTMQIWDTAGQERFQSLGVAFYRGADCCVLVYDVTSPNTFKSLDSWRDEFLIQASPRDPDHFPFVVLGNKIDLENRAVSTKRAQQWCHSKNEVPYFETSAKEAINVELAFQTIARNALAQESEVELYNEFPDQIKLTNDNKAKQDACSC
UniProt Q00P14: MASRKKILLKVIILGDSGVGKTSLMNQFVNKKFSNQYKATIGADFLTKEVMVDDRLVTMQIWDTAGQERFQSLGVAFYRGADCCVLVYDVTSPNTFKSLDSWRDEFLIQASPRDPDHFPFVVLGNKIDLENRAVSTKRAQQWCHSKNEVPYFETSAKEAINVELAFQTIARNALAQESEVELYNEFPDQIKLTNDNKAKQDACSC
UniProt Q9ICB7: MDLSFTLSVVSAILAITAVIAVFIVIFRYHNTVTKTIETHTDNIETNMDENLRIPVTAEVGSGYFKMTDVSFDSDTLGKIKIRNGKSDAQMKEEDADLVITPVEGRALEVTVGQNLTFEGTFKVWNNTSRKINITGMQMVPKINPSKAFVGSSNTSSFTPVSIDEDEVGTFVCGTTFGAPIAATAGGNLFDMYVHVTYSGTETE

Tests used:
[1] = target: MBP-tagged LvRab7 (Litopenaeus vannamei Rab7) (Litopenaeus vannamei) (UniProt D2DW56); experiment: pull-down; MBP pull-down: 100 μl MBP-tagged rPmRab7, rLvRab7 or rLvpIgR (1 μg/μl) with 100 μl VP28 or VP24, 4°C, 1 h; MBP-bind resin 2 h at 4°C; washed with PBS; Coomassie staining and western blot (GST tag antibody); both purified
[2] = target: MBP-tagged PmRab7 (Penaeus monodon Rab7) (Penaeus monodon) (UniProt Q00P14); experiment: as above
[3] = target: GST-tagged VP28 of WSSV (white spot syndrome virus (WSSV)) (UniProt Q9ICB7); experiment: pull-down; competitive GST pull-down with three recombinantly expressed proteins: VP28, LvRab7 and different amounts of BigPEN-FL; Coomassie staining and western blot; both purified
[4] = target: GST-tagged VP28 of WSSV (white spot syndrome virus (WSSV)) (UniProt Q9ICB7); experiment: pull-down; GST pull-down: 100 μl MBP-tagged rPmRab7, rLvRab7 or rLvpIgR (1 μg/μl) with 100 μl GST-tagged VP28 or VP24 (1 μg/μl), 4°C, 1 h; GST-binding resin 2 h at 4°C; washed with PBS; Coomassie staining and western blot (MBP tag antibody); both purified

With “GST-tagged VP28 of WSSV (from UniProt Q9ICB7)” the binding [1] was “binds” and the binding [2] was “binds”.

“MBP-tagged LvRab7 (Litopenaeus vannamei Rab7) (from UniProt D2DW56)” was tested, and the binding [3] was “binds” and the binding [4] was “binds”.

In the case of “MBP-tagged PmRab7 (Penaeus monodon Rab7) (from UniProt Q00P14 1-205)”, the binding [4] is reported as “binds”.
